Primary screen of a compound library

Sequences of proteins named here, by UniProt entry; tags and fusion partners are left off.
UniProt P9WPC5, whole entry: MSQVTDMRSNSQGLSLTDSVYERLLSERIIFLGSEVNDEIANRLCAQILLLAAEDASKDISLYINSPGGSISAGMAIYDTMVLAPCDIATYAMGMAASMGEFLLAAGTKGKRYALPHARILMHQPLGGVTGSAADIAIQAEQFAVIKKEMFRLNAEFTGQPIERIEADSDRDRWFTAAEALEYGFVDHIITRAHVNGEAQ
UniProt P9WPC3, whole entry partner: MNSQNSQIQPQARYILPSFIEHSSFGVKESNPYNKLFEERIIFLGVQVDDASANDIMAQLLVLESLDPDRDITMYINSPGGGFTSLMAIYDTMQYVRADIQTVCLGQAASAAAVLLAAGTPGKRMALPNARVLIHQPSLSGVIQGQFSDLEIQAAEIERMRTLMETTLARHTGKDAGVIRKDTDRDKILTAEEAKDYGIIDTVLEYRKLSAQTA

Source: ChEMBL document CHEMBL3988442, “University of Dundee, Small-Polar-MMV Screening Library” (2021).

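Protease assay of ClpP1P2, read by the AMC dye that it sets free. Target: ClpP1P2, Mycobacterium tuberculosis (UniProt P9WPC5 and UniProt P9WPC3). Concentration: 50 µM. Higher reads as stronger inhibition, judged from the few compounds that gave an IC50. Most other retested compounds had strongly negative values. About 69,000 compounds were tested under these conditions; 0.015% (about 10) showed 50% or more at least once.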

Each number is a percent effect as filed.
The controls that fix the scale are not given in the record; negative values are as filed.
Compounds were drawn at random from those tested, without regard to their results.

compound | effect
Cc1ccsc1CN(CCN(C)C)C(=O)c1ccc(C#N)nc1 | -10.74%
COCc1nc(CN2CC(C)(c3ccccc3)CCC2=O)no1 (stereo not given) | -1.68%
C=Cn1ncc(CN2C[C@@H]3CCCN3C[C@H]2Cc2ccccc2)c1C | -7.819%
Cn1c(C(=O)N2CCc3[nH]cnc3C2C(=O)O)ccc1-c1ccccc1 (stereo not given) | -9.639%
CC(C)(CNCc1ccc(OCc2cscn2)cc1)C(N)=O | 14.62%
Cc1cc(C(F)(F)F)nn1CC(C)C(=O)Nc1ccccn1 (stereo not given) | 8.408%
Cc1nc(N2C[C@@H](CN3CCCN(C)CC3)[C@@H](CO)C2)c2ccsc2n1 | 15.19%
COCCNC(=O)[C@H]1CC[C@@H]2[C@@H](CCN2c2ncc(F)cn2)O1 | -7.612%
Cc1cc(N(Cc2cccnc2)C2CC2)n2nc(C(F)(F)F)nc2n1 | 4.866%
CC(C)SCc1cccc(NC2CCN(C)C2=O)c1 (stereo not given) | 1.617%
COc1ccc(C(=O)Nc2ccc3c(c2)C(=O)NC3)cc1Br | -8.232%
CCc1nnsc1C(=O)NCc1c(C)nn(CCOC)c1C | 9.796%
CCOCc1cnc2n1CCN(C(=O)Cc1cccs1)C2C (stereo not given) | 2.179%
FC1(F)CCNCC12CCN(c1ncccn1)C2 (stereo not given) | 1.129%
Cc1nnc(C2Cc3ccccc3CN2Cc2ncc(Cl)n2C)o1 (stereo not given) | -7.199%
COCc1nc(C(=O)NS(=O)(=O)c2cc(Br)ccc2C)cs1 | 0.4844%
CC(Nc1cccc(CN2CCOC2=O)c1)C(=O)NC(N)=O (stereo not given) | 0.3897%
O=C(c1ccsc1)N1CCc2c(CN3CCCC3)n[nH]c2C1 | -4.706%
CC(C)(C)CN1CCCC2(CCN(C(=O)c3ccc(O)nc3)C2)C1 (stereo not given) | 0.05889%
Cc1nnc(SCC(=O)NCc2ccc3c(c2)CCC(=O)N3)n1C | 3.743%
Cc1nn(C2CCS(=O)(=O)C2)c(O)c1Cc1ccccc1 (stereo not given) | -6.957%
O=C(NCCNc1cnccn1)N1CCCC(N2CCCC2)C1 (stereo not given) | -8.044%
CN(Cc1cccc(C(=O)Nc2ccnn2C)c1)CC1(C)COC1 | 6.192%
Cc1nc(C)n(C2CCCN(C(=O)CCOC(C)C)C2)n1 (stereo not given) | 12.59%
Cc1cc(C(=O)NC2CCc3c(ccc(=O)n3CCN(C)C)C2)no1 (stereo not given) | -3.004%
CC(C)n1ccc(C(=O)N2CCCC(n3cncn3)C2)n1 (stereo not given) | -10.25%
COc1cc(CNCCc2cnn(C)c2)cc(OC)c1OC | -13.42%
Cc1cn[nH]c1C1CCCCN1C(=O)CCN1CCCCCC1 (stereo not given) | -6.6%
CC(Cn1ccnc1)NC(=O)NCCc1ccc(Cl)s1 (stereo not given) | 2.494%
O=C(CCc1cccnc1)N1CCCC(n2cncn2)C1 (stereo not given) | -3.246%
Cc1noc(Cl)c1CCC(=O)N1CCN(c2ccccc2)CC1 | -7.592%
Cc1cncc(C2CCCN(C(=O)c3cn(C)nc3C)C2)n1 (stereo not given) | -9.577%
c1cncc(CN2CCn3cc(Cn4cccn4)nc3C2)c1 | -6.755%
O=C(CO)N1CCCC(N2CCN(c3ccccc3F)CC2)C1 (stereo not given) | -0.746%
CC(C)(O)CN1CCN(C(=O)COC2CCCCC2)CC1 | -6.391%
CC(C)C(=O)NCCC(=O)N1CCN(c2ccccn2)CC1 | 5.115%
Nc1cc2c(nn1)CCN(C(=O)C1CCc3ccccc31)C2 (stereo not given) | -6.882%
Cc1ccc(C(=O)NCCCN(C)S(C)(=O)=O)cc1-n1cccc1 | 5.725%
Cc1ccc(C(NCC(=O)N2CCNC(=O)C2)C(F)(F)F)cc1 (stereo not given) | 2.838%
CCc1nccn1C1CCCN(C(=O)c2ccc3[nH]c(=O)[nH]c3c2)C1 (stereo not given) | 5.586%
CC(c1cc(F)ccc1F)N1CCN(C(=O)c2ccc(=O)[nH]c2)CC1 (stereo not given) | 2.13%
CC(C)(C)OC(=O)N1CSC[C@@H]1C(=O)NCc1ccsc1 | 2.492%
O=C(NCCCn1cccn1)c1nnc2ccccc2n1 | 0.8339%
CCN1CCN(c2nc(O)cc(Cc3ccccc3F)n2)CC1 | -34.17%
COc1ccccc1OCc1cc(C(=O)N2CCCCCC2CO)n[nH]1 (stereo not given) | -4.519%
O=C(c1ccc2c(c1)OCO2)N1C[C@H](OCC2CC2)[C@H]2COC[C@H]21 | 4.693%
Cc1cc(CC(C)NC2CCN(CC(C)C)CC2)[nH]n1 (stereo not given) | -0.4008%
O=C(C1CCC1)N1C[C@@H]2CN(Cc3ccncc3)C(=O)[C@@H]2C1 | 5.293%
CC(C)NC(=O)N1CCC[C@H]1C(=O)NCCCc1cccc(F)c1 | 0.9611%
CN1CCC/C1=N\S(=O)(=O)c1ccc(NC(=O)c2ccc(F)cc2)cc1 | 7.726%
CCC[C@@H]1CN(C(=O)c2cc3ccccc3s2)C[C@H]1NS(C)(=O)=O | -3.338%
O=C(NC1CCCCC1)c1cc(Br)cnc1N1CCCCC1 | -7.887%
CCC1CN(C)c2ccccc2CN1C(=O)c1c[nH]c(=O)cc1C (stereo not given) | -0.6162%
Cc1nccn1C1CCCN(C(=O)Cn2ccc(=O)n(C)c2=O)C1 (stereo not given) | 5.127%
CC(C)COC(C)C(=O)NCc1cc(F)cc(F)c1 (stereo not given) | 1.748%
CN1CCN(c2nc(O)c3c(-c4ccccn4)ccnc3n2)CC1 | -288.2%
O=C1NCCCCC1Sc1nnc(C2CC2)n1C1CC1 (stereo not given) | 5.198%
C1CCC(NCC2(N3CCOCC3)CCSC2)C1 (stereo not given) | 0.7885%
CCOCCCNS(=O)(=O)c1ccc2c(c1)NC(=O)C(C)O2 (stereo not given) | 13.05%
O=S(=O)(NC[C@]12COC[C@H]1CN(CCc1ccccc1)C2)C1CC1 | -2.112%
COc1ccc(-c2cn(CCn3c(C)cc(C)nc3=O)nn2)cn1 | -1.468%
O=C(C1CCOC1)N1C[C@H]2CN(Cc3ccccn3)C[C@H]2C1 (stereo not given in full) | -2.636%
O=C(Cn1cc(-c2ccccc2)ncc1=O)NC1CCCCC1 | -11.43%
CCn1cnnc1C1CCN(C(=O)COCCc2ccccc2)CC1 | 7.067%
COc1cc2c(cc1CN1CCC3(CCCN(C)C3=O)C1)OCCO2 (stereo not given) | -0.3604%
CCOc1ccc(N(C)S(=O)(=O)c2c[nH]c(C(C)C)n2)cc1 | -5.78%
COc1ccc(-c2nc(CN3CCc4cnc(C)nc4C3)no2)cc1 | -23.07%
Cc1nnc(SCCC(=O)N(C)Cc2ccc(F)cc2Cl)[nH]1 | -11.43%
Cc1cc(CS(=O)(=O)CC(=O)N2c3ccccc3CC2C)no1 (stereo not given) | 9.147%
CCc1ccc(CN2CCCC(CO)(CCOC)C2)cc1 (stereo not given) | -20.5%
CCOCC(O)CN1CCN(C(=O)c2ccncc2)CC1 (stereo not given) | 0.8352%
c1ccc(Cc2nnc(CN3CCc4cncnc4C3)o2)cc1 | -51.38%
c1cnnc(N2CCCC(NCc3nc(-c4ccsc4)no3)C2)c1 (stereo not given) | -4.923%
NC[C@H]1CC[C@H](C(NC(=O)C2CC2)c2ccccn2)CC1 (stereo not given in full) | -3.056%
COc1ccc(Cl)cc1S(=O)(=O)N(C)CC(N)=O | -12.5%
Brc1cccc(C2(CNCc3cc[nH]c3)CCOCC2)c1 | 11.54%
Cn1nc2c(c1NC(=O)c1ccc(Cl)s1)CCC2 | -2.167%
O=C(NCC1CC1)N1CCN(Cc2ccc3c(c2)OCCO3)CC1 | -3.478%
CNc1nccnc1C1CN(C(=O)c2c[nH]cn2)CCO1 (stereo not given) | 11.07%
CN(Cc1nncn1C)C(=O)c1cc(COc2ccccc2F)[nH]n1 | 7.429%
CC(NC(=O)OC(C)(C)C)c1nnc(S(=O)(=O)Cc2ccccc2Cl)o1 (stereo not given) | -18.48%
c1cncc(N2CC[C@@H]3CN(CC4CC4)C[C@@H]3C2)c1 | 1.647%
CCCc1nc(C(=O)NCc2cccnc2-n2cncn2)cs1 | 15.85%
O=C(COC1CCCC1)N1CCC(C(O)c2ccc(F)cc2)CC1 (stereo not given) | -1.858%
NC(=O)c1ccc(NC(=O)N2CCN(c3cccs3)CC2)c(F)c1 | -3.016%
O=C(NCC(c1ccc(F)cc1)N1CCOCC1)Nc1cn[nH]c1 (stereo not given) | -40.1%
CC(C#N)CNC(=O)Nc1ccc(Br)cc1 (stereo not given) | -0.4904%
CCS(=O)(=O)N1CCC2(CC1)COC(COc1cccnc1)C2 (stereo not given) | 21.63%
CCc1ncc(CN2CCC(Oc3ccccc3OC)CC2)cn1 | -8.661%
COc1ccc2[nH]c3c(c2c1)CN(c1cc(NCCO)nc(N)n1)CC3 | -5.043%
COCC1CN(C(=O)c2cccs2)Cc2nccn2C1 (stereo not given) | 5.492%
CC(=O)N[C@H]1CN(S(=O)(=O)N(C)Cc2ccccc2)C[C@@H]1C1CC1 | -10.44%

Repeated from the top, 6 entries:

compound	effect
Cc1ccsc1CN(CCN(C)C)C(=O)c1ccc(C#N)nc1	-10.74%
COCc1nc(CN2CC(C)(c3ccccc3)CCC2=O)no1 (stereo not given)	-1.68%
C=Cn1ncc(CN2C[C@@H]3CCCN3C[C@H]2Cc2ccccc2)c1C	-7.819%
Cn1c(C(=O)N2CCc3[nH]cnc3C2C(=O)O)ccc1-c1ccccc1 (stereo not given)	-9.639%
CC(C)(CNCc1ccc(OCc2cscn2)cc1)C(N)=O	14.62%
Cc1cc(C(F)(F)F)nn1CC(C)C(=O)Nc1ccccn1 (stereo not given)	8.408%